Laboratory results: the supplement of paper PMC8728848
This is one part of the list.

Key:
Assay in all cases: glycan array binding signal (z-score within array); higher = stronger binding
Conditions in all cases: glycan notation: IUPAC condensed, linker removed
[1] = target: Fuc(a1-2)[GalNAc(a1-3)]Gal(b1-3)GalNAc(b1-3)Gal(a1-4)Gal(b1-4)Glc
How it was run: (§1)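 Glycan array binding is given as a within-array Z-score, which can be read as non-binding when negative. The arrays, 3228 of them, came from the Consortium for Functional Glycomics database and were retained only where the protein sequence was available. Z-scores were averaged across arrays of the same protein sequence at different concentrations or buffers and across linkers.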

[2] = target: Fuc(a1-2)[GalNAc(a1-3)]Gal(b1-3)GlcNAc
How it was run: as §1

[3] = target: Fuc(a1-2)[GalNAc(a1-3)]Gal(b1-3)GlcNAc(b1-2)Man(a1-3)[Fuc(a1-2)[GalNAc(a1-3)]Gal(b1-3)GlcNAc(b1-2)Man(a1-6)]Man(b1-4)GlcNAc(b1-4)GlcNAc
How it was run: as §1

[4] = target: Fuc(a1-2)[GalNAc(a1-3)]Gal(b1-3)GlcNAc(b1-2)Man(a1-3)[Fuc(a1-2)[GalNAc(a1-3)]Gal(b1-3)GlcNAc(b1-2)Man(a1-6)]Man(b1-4)GlcNAc(b1-4)[Fuc(a1-6)]GlcNAc
How it was run: as §1

[5] = target: Fuc(a1-2)[GalNAc(a1-3)]Gal(b1-3)GlcNAc(b1-3)GalNAc
How it was run: as §1

[6] = target: Fuc(a1-2)[GalNAc(a1-3)]Gal(b1-3)GlcNAc(b1-6)GalNAc
How it was run: as §1

[7] = target: Fuc(a1-2)[GalNAc(a1-3)]Gal(b1-4)Glc
How it was run: as §1

[8] = target: Fuc(a1-2)[GalNAc(a1-3)]Gal(b1-4)GlcNAc
How it was run: as §1

[9] = target: Fuc(a1-2)[GalNAc(a1-3)]Gal(b1-4)GlcNAc(b1-2)Man
How it was run: as §1

[10] = target: Fuc(a1-2)[GalNAc(a1-3)]Gal(b1-4)GlcNAc(b1-2)Man(a1-3)[Fuc(a1-2)[GalNAc(a1-3)]Gal(b1-4)GlcNAc(b1-2)Man(a1-6)]Man(b1-4)GlcNAc(b1-4)GlcNAc
How it was run: as §1

[11] = target: Fuc(a1-2)[GalNAc(a1-3)]Gal(b1-4)GlcNAc(b1-2)Man(a1-3)[Fuc(a1-2)[GalNAc(a1-3)]Gal(b1-4)GlcNAc(b1-2)Man(a1-6)]Man(b1-4)GlcNAc(b1-4)[Fuc(a1-6)]GlcNAc
How it was run: as §1

[12] = target: Fuc(a1-2)[GalNAc(a1-3)]Gal(b1-4)GlcNAc(b1-2)Man(a1-3)[GalNAc(a1-3)[Fuc(a1-2)]Gal(b1-4)GlcNAc(b1-2)Man(a1-6)]Man(b1-4)GlcNAc(b1-4)GlcNAc
How it was run: as §1

[13] = target: Fuc(a1-2)[GalNAc(a1-3)]Gal(b1-4)GlcNAc(b1-3)Gal(b1-4)GlcNAc
How it was run: as §1

[14] = target: Fuc(a1-2)[GalNAc(a1-3)]Gal(b1-4)GlcNAc(b1-3)Gal(b1-4)GlcNAc(b1-3)Gal(b1-4)GlcNAc
How it was run: as §1

[15] = target: Fuc(a1-2)[GalNAc(a1-3)]Gal(b1-4)GlcNAc(b1-3)GalNAc
How it was run: as §1

[16] = target: Fuc(a1-2)[GalNAc(a1-3)]Gal(b1-4)GlcNAc(b1-3)[Fuc(a1-2)[GalNAc(a1-3)]Gal(b1-4)GlcNAc(b1-6)]GalNAc
How it was run: as §1

[17] = target: Fuc(a1-2)[GalNAc(a1-3)]Gal(b1-4)GlcNAc(b1-6)GalNAc
How it was run: as §1

[18] = target: Fuc(a1-2)[GalNAc(a1-3)]Gal(b1-4)[Fuc(a1-3)]GlcNAc
How it was run: as §1

[19] = target: Fuc(a1-2)[GalNAc(a1-3)]Gal(b1-4)[Fuc(a1-3)]GlcNAc(b1-3)GalNAc
How it was run: as §1

[20] = target: Fuc(a1-2)[GalNAc(a1-4)]Gal(b1-4)GlcNAc
How it was run: as §1

[21] = target: Fuc(a1-2)[GalNAc(b1-3)]Gal
How it was run: as §1

[22] = target: Fuc(a1-3)GlcNAc
How it was run: as §1

B1: BabA (Helicobacter pylori), O52269_HELPY (protein)
chain: AEDDGFYMSAGYQIGEAAQMVKNTKGIQELSDNYENLSNLLTRYSTLNTLIKLSADPSAVNAARENLGASAKNLIGDTKNSPAYQAVLLAINAAVGFWNVVGYVTQCGGNANGQKSTSSTTIFNNEPGYRSTSITCSLNGHMPGYYGPMSIENFKKLNEAYQILQTALKNGLPALKENNGTVNVTYSYTCSGEGNDNCSLQTTGVTNQNNGTKTETQTIDGKSVTTTISSKVVDSQ
glycan array binding signal (z-score) [1]: 0.063
glycan array binding signal (z-score) [2]: -0.233
glycan array binding signal (z-score) [3]: -0.767
glycan array binding signal (z-score) [4]: -0.219
glycan array binding signal (z-score) [5]: 0.354
glycan array binding signal (z-score) [6]: -0.709
glycan array binding signal (z-score) [7]: -0.039
glycan array binding signal (z-score) [8]: -0.47
glycan array binding signal (z-score) [9]: 0.626
glycan array binding signal (z-score) [10]: -0.155
glycan array binding signal (z-score) [11]: 0.59
glycan array binding signal (z-score) [12]: -0.893
glycan array binding signal (z-score) [13]: -0.624
glycan array binding signal (z-score) [14]: -0.054
glycan array binding signal (z-score) [15]: -0.6
glycan array binding signal (z-score) [16]: -0.637
glycan array binding signal (z-score) [17]: -0.618
glycan array binding signal (z-score) [18]: 0.309
glycan array binding signal (z-score) [19]: -0.164
glycan array binding signal (z-score) [20]: -0.727
glycan array binding signal (z-score) [21]: -0.45
glycan array binding signal (z-score) [22]: -0.059
